These are yes or no findings as the source states them, for the method shown. Binding seen in cells or lysates may run through a third protein. Some entries that bind do so weakly or less than the wild type.

By UniProt entry, the sequences of proteins in these tests, tags left out. Where a name states a change or a piece, a line headed by the entry shows the natural chain unless it says otherwise. Chains listed by the source or under a name are the forms on record and can include a tag or linker. Residues count along the entry.
wild-type (WT) human β3 integrin (P05106, residues 27-788): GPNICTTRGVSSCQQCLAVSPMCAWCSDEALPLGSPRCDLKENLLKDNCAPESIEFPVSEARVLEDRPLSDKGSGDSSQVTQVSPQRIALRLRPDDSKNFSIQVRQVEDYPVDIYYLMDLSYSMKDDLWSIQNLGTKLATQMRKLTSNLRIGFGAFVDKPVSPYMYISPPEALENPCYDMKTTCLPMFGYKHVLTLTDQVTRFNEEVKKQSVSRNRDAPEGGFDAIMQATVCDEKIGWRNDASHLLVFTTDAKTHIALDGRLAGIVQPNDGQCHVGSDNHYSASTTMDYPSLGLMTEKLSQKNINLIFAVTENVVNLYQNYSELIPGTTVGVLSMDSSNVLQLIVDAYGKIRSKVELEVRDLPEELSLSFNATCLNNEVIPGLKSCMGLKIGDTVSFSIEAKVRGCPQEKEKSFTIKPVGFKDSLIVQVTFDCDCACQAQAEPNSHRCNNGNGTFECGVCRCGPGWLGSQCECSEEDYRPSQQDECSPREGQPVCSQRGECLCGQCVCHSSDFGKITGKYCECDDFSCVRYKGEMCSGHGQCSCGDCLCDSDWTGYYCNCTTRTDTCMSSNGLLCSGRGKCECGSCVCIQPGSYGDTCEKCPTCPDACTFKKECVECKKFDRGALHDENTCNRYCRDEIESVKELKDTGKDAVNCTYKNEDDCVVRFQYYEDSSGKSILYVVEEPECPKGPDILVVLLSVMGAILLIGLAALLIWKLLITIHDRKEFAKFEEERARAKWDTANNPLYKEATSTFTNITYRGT
D119A β3 integrin (inactive mutant of human β3 integrin) (P05106, form named): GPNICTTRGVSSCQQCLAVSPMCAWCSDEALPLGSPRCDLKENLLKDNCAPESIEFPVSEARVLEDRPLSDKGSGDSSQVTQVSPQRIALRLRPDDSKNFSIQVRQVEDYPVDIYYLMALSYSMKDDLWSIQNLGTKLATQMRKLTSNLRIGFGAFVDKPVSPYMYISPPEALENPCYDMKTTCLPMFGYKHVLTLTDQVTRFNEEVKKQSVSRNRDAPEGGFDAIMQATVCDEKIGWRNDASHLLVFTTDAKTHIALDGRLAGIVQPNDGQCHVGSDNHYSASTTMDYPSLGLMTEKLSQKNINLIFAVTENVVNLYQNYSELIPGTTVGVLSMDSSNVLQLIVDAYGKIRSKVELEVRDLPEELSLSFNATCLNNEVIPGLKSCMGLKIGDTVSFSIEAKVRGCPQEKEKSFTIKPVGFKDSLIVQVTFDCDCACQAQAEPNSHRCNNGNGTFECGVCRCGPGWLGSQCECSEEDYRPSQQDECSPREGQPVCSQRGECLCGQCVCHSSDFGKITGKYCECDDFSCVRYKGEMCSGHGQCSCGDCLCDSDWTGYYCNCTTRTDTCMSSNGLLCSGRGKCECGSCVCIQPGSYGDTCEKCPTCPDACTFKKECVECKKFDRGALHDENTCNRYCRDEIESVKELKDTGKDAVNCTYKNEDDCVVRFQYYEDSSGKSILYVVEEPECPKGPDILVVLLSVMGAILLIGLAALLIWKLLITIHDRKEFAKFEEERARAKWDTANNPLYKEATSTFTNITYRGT
UniProt P01137, residues 279-390: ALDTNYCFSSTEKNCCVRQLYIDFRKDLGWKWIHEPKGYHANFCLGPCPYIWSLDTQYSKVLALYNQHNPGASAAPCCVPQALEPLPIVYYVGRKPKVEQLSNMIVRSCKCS

Assay [1] deals with T1, TGF-β receptor type II (endogenous, NMuMG cells) (mouse (endogenous in NMuMG)) (UniProt Q62312).
T1 sequence: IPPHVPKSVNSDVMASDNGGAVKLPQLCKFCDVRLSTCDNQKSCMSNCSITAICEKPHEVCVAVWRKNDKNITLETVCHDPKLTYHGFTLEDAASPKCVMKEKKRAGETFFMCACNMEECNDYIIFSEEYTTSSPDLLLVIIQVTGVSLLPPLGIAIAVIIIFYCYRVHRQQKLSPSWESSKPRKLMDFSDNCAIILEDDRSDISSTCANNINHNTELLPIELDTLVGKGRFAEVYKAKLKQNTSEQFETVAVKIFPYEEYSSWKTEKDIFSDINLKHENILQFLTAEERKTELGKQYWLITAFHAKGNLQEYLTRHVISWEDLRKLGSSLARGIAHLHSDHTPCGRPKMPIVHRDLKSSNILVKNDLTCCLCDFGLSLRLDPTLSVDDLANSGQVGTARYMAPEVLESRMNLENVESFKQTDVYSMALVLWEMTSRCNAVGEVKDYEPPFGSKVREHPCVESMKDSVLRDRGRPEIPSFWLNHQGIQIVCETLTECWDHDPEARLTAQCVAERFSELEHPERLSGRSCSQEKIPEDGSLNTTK
The assay can be described thus: cross-linking + co-IP; after binding and cross-linking of [125I]TGF-β1 to NMuMG cells, detergent-solubilized extracts immunoprecipitated with anti-TβR-II antibodies; blot with anti-β3 integrin antibodies, phosphor image for the receptors.

The target in assay [2] is T1, TGF-β receptor type II (endogenous, NMuMG cells) (mouse (endogenous in NMuMG)). The assay can be described thus: radioligand binding + cross-linking; [125I]TGF-β1 (200 pmol/l) bound and chemically cross-linked to control (GFP), WT or D119A β3 integrin expressing NMuMG cells; complexes immunoprecipitated with anti-TβR-II, 7.5% SDS-PAGE, phosphor image; only the binder purified.

Assay [3] deals with T2, TGF-β receptor type I (endogenous, NMuMG cells) (mouse (endogenous in NMuMG)) (UniProt Q64729).
T2 sequence: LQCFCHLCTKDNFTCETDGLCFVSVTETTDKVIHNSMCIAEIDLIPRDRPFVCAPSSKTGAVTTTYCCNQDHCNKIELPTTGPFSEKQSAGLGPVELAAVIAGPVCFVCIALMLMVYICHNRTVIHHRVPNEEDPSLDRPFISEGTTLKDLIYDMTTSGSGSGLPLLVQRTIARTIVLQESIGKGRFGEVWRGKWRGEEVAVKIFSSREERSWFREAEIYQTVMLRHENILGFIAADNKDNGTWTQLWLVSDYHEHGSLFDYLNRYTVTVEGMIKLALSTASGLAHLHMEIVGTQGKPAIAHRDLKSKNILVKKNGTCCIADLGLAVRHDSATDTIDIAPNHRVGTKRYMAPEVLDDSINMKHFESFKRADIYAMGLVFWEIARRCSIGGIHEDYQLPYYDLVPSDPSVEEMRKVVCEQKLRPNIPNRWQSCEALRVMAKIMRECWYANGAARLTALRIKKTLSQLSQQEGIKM
The description is as above.

“D119A β3 integrin (inactive mutant of human β3 integrin) (from UniProt P05106 27-788) (receptor)”: the binding entry in assay [1] is reported as “binds”.
Consider “iodinated transforming growth factor-β1 (from UniProt P01137 279-390) (ligand)”, for which the binding entry in assay [2] and in assay [3] was “binds” throughout.
Turning to “wild-type (WT) human β3 integrin (from UniProt P05106 27-788) (receptor)”, the binding result in assay [1] was “binds”.

The values above are taken from publication PMC1779461.
